# From patent publication US7413909
# Amino acid sequences for entries named in this document (tags omitted).
# UniProt P07477: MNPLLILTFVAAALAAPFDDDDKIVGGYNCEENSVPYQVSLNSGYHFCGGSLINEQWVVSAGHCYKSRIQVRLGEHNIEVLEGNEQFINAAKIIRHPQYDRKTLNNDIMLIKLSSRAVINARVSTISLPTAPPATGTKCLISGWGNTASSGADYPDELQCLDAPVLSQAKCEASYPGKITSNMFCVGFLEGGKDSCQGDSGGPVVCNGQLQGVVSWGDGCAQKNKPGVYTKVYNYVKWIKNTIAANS
# No constants are given. Whether binding was seen depends on the method and setting. Binding seen in cells or lysates may run through a third protein. Here binding means that the protein was enriched with, or labelled near, the bait; the list need not be complete.
# B1: Soybean trypsin inhibitor (Sigma) (protein, UniProt P01070 25-205, looked up)
# chain: DFVLDNEGNPLENGGTYYILSDITAFGGIRAAPTGNERCPLTVVQSRNELDKGIGTIISSPYRIRFIAEGHPLSLKFDSFAVIMLCVGIPTEWSVVEDLPEGPAVKIGENKDAMDGWFRLERVSDDEFNNYKLVFCPQQAEDDKCGDIGISIDHDDGTRRLVVSKNKPLVVQFQKLDKESL
# Key:
# [1] = target: Trypsin from human duodenal aspirate (human) (UniProt P07477); test: immobilized inhibitor, capture from human duodenal aspirate, laser desorption TOF mass spectrometry
# [2] = target: Trypsin from human duodenal aspirate (human) (UniProt P07477); test: inhibitor on AffiGel 10 (also on nylon and acrylic probe tips), capture from human duodenal aspirate, laser desorption TOF mass spectrometry
binder,measurement,setting,value
B1,binding,[1],binds
same,binding,[2],binds
